From PMC12559995 (RSC Advances, 2025)

Test system: Plasmodium falciparum 3D7
Experiment: Antimalarial assay
Type: cell-based
Details: 3D7, 72 h, read-out: Antimalarial IC50

IC50: 280 ± 30 nM
Structure (SMILES): CCN(CC)CCCC(C)Nc1ccnc2cc(Cl)ccc12 (stereo not shown) [Chloroquine, reference compound]
